Experimental data: patent US20210100886A1 (SUMITOMO DAINIPPON PHARMA CO., LTD., priority 2017, published 2021)
Where a sequence shows no end group, the ends are not given.

Test: general procedure: Fmoc solid-phase peptide synthesis; Fmoc-Leu-Alko-PEG resin; HBTU/DIPEA
Conditions: whole synthesis, scale 0.24 mmol, TFA salt

## HCYTWNQMNL
  isolated mass: 0.14 g
